Reference: article PMC5584048
No constants are given. Whether binding was seen depends on the method and setting. In cells and extracts the contact can be indirect. A result given as binding can be weak or reduced; the word gives no strength.

Experiments:
[1] = molecular target: T1, transmembrane protein 147 (TMEM147), endogenous in goat PBMC (goat (endogenous in PBMC)) (UniProt I6VSD2); assay: co-IP; reverse IP: goat PBMC incubated with rMNh or rMCh for 12 h, washed and lysed; 1 mg lysate precipitated overnight at 4 °C with rat anti-TMEM63A-NO or anti-TMEM147-O IgG and Protein A/G agarose; blot with anti-MNh or anti-MCh IgG; normal rat IgG as control; only the binder purified
T1 sequence: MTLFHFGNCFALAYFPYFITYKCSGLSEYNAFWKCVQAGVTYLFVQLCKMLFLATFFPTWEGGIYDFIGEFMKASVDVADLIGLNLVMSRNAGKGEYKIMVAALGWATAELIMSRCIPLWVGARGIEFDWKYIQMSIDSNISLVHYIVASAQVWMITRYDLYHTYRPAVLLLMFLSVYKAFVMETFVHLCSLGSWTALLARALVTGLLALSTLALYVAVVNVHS

[2] = molecular target: T2, transmembrane protein 63A (TMEM63A), endogenous in goat PBMC (goat (endogenous in PBMC)); assay: as above
T2 sequence: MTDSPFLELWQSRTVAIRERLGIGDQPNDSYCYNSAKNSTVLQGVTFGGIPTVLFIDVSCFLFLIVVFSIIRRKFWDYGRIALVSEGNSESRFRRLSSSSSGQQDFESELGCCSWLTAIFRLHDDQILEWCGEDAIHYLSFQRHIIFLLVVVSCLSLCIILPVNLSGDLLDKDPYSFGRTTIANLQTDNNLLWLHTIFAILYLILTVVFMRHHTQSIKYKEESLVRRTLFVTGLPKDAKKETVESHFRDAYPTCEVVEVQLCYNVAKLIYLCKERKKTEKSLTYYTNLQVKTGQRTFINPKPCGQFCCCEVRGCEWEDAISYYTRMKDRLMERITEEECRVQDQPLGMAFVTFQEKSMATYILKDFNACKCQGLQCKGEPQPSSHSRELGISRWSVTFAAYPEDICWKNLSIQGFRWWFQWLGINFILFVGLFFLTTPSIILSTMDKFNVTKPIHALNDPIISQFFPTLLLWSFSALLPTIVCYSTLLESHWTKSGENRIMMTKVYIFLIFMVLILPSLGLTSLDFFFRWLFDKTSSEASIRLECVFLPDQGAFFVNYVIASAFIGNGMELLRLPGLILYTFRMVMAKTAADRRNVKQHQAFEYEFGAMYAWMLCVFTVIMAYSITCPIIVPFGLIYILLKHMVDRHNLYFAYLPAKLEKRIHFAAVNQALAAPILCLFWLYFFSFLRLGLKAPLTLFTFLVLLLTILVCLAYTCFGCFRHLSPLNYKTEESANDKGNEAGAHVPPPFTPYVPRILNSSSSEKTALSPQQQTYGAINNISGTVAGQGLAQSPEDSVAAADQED

[3] = molecular target: recombinant C-terminal carbohydrate recognition domain of Hco-gal-m (rMCh) (Haemonchus contortus); assay: co-IP; forward IP: goat PBMC incubated with rMNh or rMCh for 12 h, washed and lysed; 1 mg lysate precipitated overnight at 4 °C with rat anti-MNh or anti-MCh IgG and Protein A/G agarose; blot with anti-TMEM63A-NO or anti-TMEM147-O IgG; normal rat IgG as control; only the target purified
[4] = molecular target: recombinant N-terminal carbohydrate recognition domain of Hco-gal-m (rMNh) (Haemonchus contortus); assay: as above

In the case of “recombinant C-terminal carbohydrate recognition domain of Hco-gal-m (rMCh) (Haemonchus contortus) (domain or fragment)”, the binding [1] is reported as “binds”.

For “recombinant N-terminal carbohydrate recognition domain of Hco-gal-m (rMNh) (Haemonchus contortus) (domain or fragment)”, the binding [2] was “binds”.

B1: transmembrane protein 147 (TMEM147), endogenous in goat PBMC (receptor, UniProt I6VSD2 1-224)
chain: T1 sequence
For B1, the binding [3] was “binds”.

B2: transmembrane protein 63A (TMEM63A), endogenous in goat PBMC (receptor, UniProt A0A452G813 1-803)
chain: T2 sequence
B2 was tested, and the binding [4] was “binds”.
